# In the supplement of paper PMC8728848:
# This is one part of the list.
# B1: MFG-E8 (Homo sapiens), Q08431 (protein)
# chain: MPRPRLLAALCGALLCAPSLLVALDICSKNPCHNGGLCEEISQEVRGDVFPSYTCTCLKGYAGNHCETKCVEPLGLENGNIANSQIAASSVRVTFLGLQHWVPELARLNRAGMVNAWTPSSNDDNPWIQVNLLRRMWVTGVVTQGASRLASHEYLKAFKVAYSLNGHEFDFIHDVNKKHKEFVGNWNKNAVHVNLFETPVEAQYVRLYPTSCHTACTLRFELLGCELNGCANPLGLKNNSIPDKQITASSSYKTWGLHLFSWNPSYARLDKQGNFNAWVAGSYGNDQWLQVDLGSSKEVTGIITQGARNFGSVQFVASYKVAYSNDSANWTEYQDPRTGSSKIFPGNWDNHSHKKNLFETPILARYVRILPVAWHNRIALRLELLGC
# Experiments:
# Experiment in all cases: glycan array binding signal (z-score within array); higher = stronger binding
# Details in all cases: glycan notation: IUPAC condensed, linker removed
# Gal(a1-3)Gal = biological target: Gal(a1-3)Gal
# Summary of the method: (§1)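 From the Consortium for Functional Glycomics database, 3228 arrays were curated, keeping only those whose protein sequence was available. Binding is given as a within-array Z-score averaged across arrays sharing a protein sequence and across linkers. Negative Z-scores can be read as non-binding.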
# Gal(a1-3)Gal(b1-3)GlcNAc = biological target: Gal(a1-3)Gal(b1-3)GlcNAc
# Summary of the method: as §1
# [1] = biological target: Gal(a1-3)Gal(b1-3)GlcNAc(b1-2)Man(a1-3)[Gal(a1-3)Gal(b1-3)GlcNAc(b1-2)Man(a1-6)]Man(b1-4)GlcNAc(b1-4)GlcNAc
# Summary of the method: as §1
# [2] = biological target: Gal(a1-3)Gal(b1-3)GlcNAc(b1-3)GalNAc
# Summary of the method: as §1
# [3] = biological target: Gal(a1-3)Gal(b1-3)[Fuc(a1-4)]GlcNAc(b1-2)Man(a1-3)[Gal(a1-3)Gal(b1-3)[Fuc(a1-4)]GlcNAc(b1-2)Man(a1-6)]Man(b1-4)GlcNAc(b1-4)GlcNAc
# Summary of the method: as §1
# Gal(a1-3)Gal(b1-4)Glc = biological target: Gal(a1-3)Gal(b1-4)Glc
# Summary of the method: as §1
# Gal(a1-3)Gal(b1-4)GlcNAc = biological target: Gal(a1-3)Gal(b1-4)GlcNAc
# Summary of the method: as §1
# [4] = biological target: Gal(a1-3)Gal(b1-4)GlcNAc(b1-3)GalNAc
# Summary of the method: as §1
# [5] = biological target: Gal(a1-3)Gal(b1-4)[Fuc(a1-3)]GlcNAc
# Summary of the method: as §1
# [6] = biological target: Gal(a1-3)Gal(b1-4)[Fuc(a1-3)]GlcNAc(b1-2)Man(a1-3)[Gal(a1-3)Gal(b1-4)[Fuc(a1-3)]GlcNAc(b1-2)Man(a1-6)]Man(b1-4)GlcNAc(b1-4)GlcNAc
# Summary of the method: as §1
# Gal(a1-3)GalNAc = biological target: Gal(a1-3)GalNAc
# Summary of the method: as §1
# [7] = biological target: Gal(a1-3)[Gal(a1-4)]Gal(b1-4)GlcNAc
# Summary of the method: as §1
# [8] = biological target: Gal(a1-4)Gal(b1-3)GlcNAc(b1-2)Man(a1-3)[Gal(a1-4)Gal(b1-3)GlcNAc(b1-2)Man(a1-6)]Man(b1-4)GlcNAc(b1-4)GlcNAc
# Summary of the method: as §1
# Gal(a1-4)Gal(b1-4)Glc = biological target: Gal(a1-4)Gal(b1-4)Glc
# Summary of the method: as §1
# Gal(a1-4)Gal(b1-4)GlcNAc = biological target: Gal(a1-4)Gal(b1-4)GlcNAc
# Summary of the method: as §1
# [9] = biological target: Gal(a1-4)Gal(b1-4)GlcNAc(b1-2)Man(a1-3)[Gal(a1-4)Gal(b1-4)GlcNAc(b1-2)Man(a1-6)]Man(b1-4)GlcNAc(b1-4)GlcNAc
# Summary of the method: as §1
# [10] = biological target: Gal(a1-4)Gal(b1-4)GlcNAc(b1-3)Gal(b1-4)Glc
# Summary of the method: as §1
# Gal(a1-4)GlcNAc = biological target: Gal(a1-4)GlcNAc
# Summary of the method: as §1
# Gal(a1-6)Glc = biological target: Gal(a1-6)Glc
# Summary of the method: as §1
# Gal(b1-2)Gal = biological target: Gal(b1-2)Gal
# Summary of the method: as §1
# Gal(b1-3)Gal = biological target: Gal(b1-3)Gal
# Summary of the method: as §1
# Gal(b1-3)Gal(b1-4)GlcNAc = biological target: Gal(b1-3)Gal(b1-4)GlcNAc
# Summary of the method: as §1
# [11] = biological target: Gal(b1-3)Gal(b1-4)GlcNAc(b1-2)Man(a1-3)[Gal(b1-3)Gal(b1-4)GlcNAc(b1-2)Man(a1-6)]Man(b1-4)GlcNAc(b1-4)GlcNAc
# Summary of the method: as §1
# Gal(b1-3)GalNAc = biological target: Gal(b1-3)GalNAc
# Summary of the method: as §1
# [12] = biological target: Gal(b1-3)GalNAc(a1-3)[Fuc(a1-2)]Gal(b1-4)Glc
# Summary of the method: as §1
# [13] = biological target: Gal(b1-3)GalNAc(a1-3)[Fuc(a1-2)]Gal(b1-4)GlcNAc
# Summary of the method: as §1
# [14] = biological target: Gal(b1-3)GalNAc(b1-3)Gal(a1-4)Gal(b1-4)Glc
# Summary of the method: as §1
# [15] = biological target: Gal(b1-3)GalNAc(b1-4)Gal(b1-4)Glc
# Summary of the method: as §1
# [16] = biological target: Gal(b1-3)GalNAc(b1-4)[Neu5Ac(a2-3)]Gal(b1-4)Glc
# Summary of the method: as §1
# Gal(b1-3)GlcNAc = biological target: Gal(b1-3)GlcNAc
# Summary of the method: as §1
# [17] = biological target: Gal(b1-3)GlcNAc(a1-6)Gal(b1-4)GlcNAc
# Summary of the method: as §1
# [18] = biological target: Gal(b1-3)GlcNAc(b1-2)Man(a1-3)[Gal(b1-3)GlcNAc(b1-2)Man(a1-6)]Man(b1-4)GlcNAc(b1-4)GlcNAc
# Summary of the method: as §1
# [19] = biological target: Gal(b1-3)GlcNAc(b1-2)Man(a1-3)[Gal(b1-3)GlcNAc(b1-2)Man(a1-6)]Man(b1-4)GlcNAc(b1-4)[Fuc(a1-6)]GlcNAc
# Summary of the method: as §1
# [20] = biological target: Gal(b1-3)GlcNAc(b1-2)[Gal(b1-3)GlcNAc(b1-6)]Man(a1-6)[Gal(b1-3)GlcNAc(b1-2)Man(a1-3)]Man(b1-4)GlcNAc(b1-4)GlcNAc
# Summary of the method: as §1
# [21] = biological target: Gal(b1-3)GlcNAc(b1-3)Gal(b1-3)GlcNAc
# Summary of the method: as §1
# [22] = biological target: Gal(b1-3)GlcNAc(b1-3)Gal(b1-4)Glc
# Summary of the method: as §1
# [23] = biological target: Gal(b1-3)GlcNAc(b1-3)Gal(b1-4)GlcNAc
# Summary of the method: as §1
# [24] = biological target: Gal(b1-3)GlcNAc(b1-3)Gal(b1-4)GlcNAc(b1-6)[Gal(b1-3)GlcNAc(b1-3)]Gal(b1-4)Glc
# Summary of the method: as §1
# [25] = biological target: Gal(b1-3)GlcNAc(b1-3)Gal(b1-4)[Fuc(a1-3)]GlcNAc(b1-6)[Gal(b1-3)GlcNAc(b1-3)]Gal(b1-4)Glc
# Summary of the method: as §1
# [26] = biological target: Gal(b1-3)GlcNAc(b1-3)GalNAc
# Summary of the method: as §1
# [27] = biological target: Gal(b1-3)GlcNAc(b1-6)Gal(b1-4)GlcNAc
# Summary of the method: as §1
# [28] = biological target: Gal(b1-3)[Fuc(a1-4)]GlcNAc
# Summary of the method: as §1
# [29] = biological target: Gal(b1-3)[Fuc(a1-4)]GlcNAc(b1-2)Man(a1-3)[Gal(b1-3)[Fuc(a1-4)]GlcNAc(b1-2)Man(a1-6)]Man(b1-4)GlcNAc(b1-4)GlcNAc
# Summary of the method: as §1
# [30] = biological target: Gal(b1-3)[Fuc(a1-4)]GlcNAc(b1-2)Man(a1-3)[Gal(b1-3)[Fuc(a1-4)]GlcNAc(b1-2)Man(a1-6)]Man(b1-4)GlcNAc(b1-4)[Fuc(a1-6)]GlcNAc
# Summary of the method: as §1
# [31] = biological target: Gal(b1-3)[Fuc(a1-4)]GlcNAc(b1-3)Gal(b1-3)[Fuc(a1-4)]GlcNAc
# Summary of the method: as §1
binder,measurement,setting,value
B1,glycan array binding signal (z-score),Gal(a1-3)Gal,-0.48
same,glycan array binding signal (z-score),Gal(a1-3)Gal(b1-3)GlcNAc,-0.722
same,glycan array binding signal (z-score),[1],0.828
same,glycan array binding signal (z-score),[2],0.46
same,glycan array binding signal (z-score),[3],0.071
same,glycan array binding signal (z-score),Gal(a1-3)Gal(b1-4)Glc,-0.592
same,glycan array binding signal (z-score),Gal(a1-3)Gal(b1-4)GlcNAc,-0.808
same,glycan array binding signal (z-score),[4],-0.233
same,glycan array binding signal (z-score),[5],-0.561
same,glycan array binding signal (z-score),[6],0.717
same,glycan array binding signal (z-score),Gal(a1-3)GalNAc,-0.456
same,glycan array binding signal (z-score),[7],-0.516
same,glycan array binding signal (z-score),[8],-0.427
same,glycan array binding signal (z-score),Gal(a1-4)Gal(b1-4)Glc,0.09
same,glycan array binding signal (z-score),Gal(a1-4)Gal(b1-4)GlcNAc,-0.441
same,glycan array binding signal (z-score),[9],-0.735
same,glycan array binding signal (z-score),[10],0.311
same,glycan array binding signal (z-score),Gal(a1-4)GlcNAc,-0.712
same,glycan array binding signal (z-score),Gal(a1-6)Glc,0.113
same,glycan array binding signal (z-score),Gal(b1-2)Gal,-0.467
same,glycan array binding signal (z-score),Gal(b1-3)Gal,-0.707
same,glycan array binding signal (z-score),Gal(b1-3)Gal(b1-4)GlcNAc,-0.085
same,glycan array binding signal (z-score),[11],0.095
same,glycan array binding signal (z-score),Gal(b1-3)GalNAc,-0.701
same,glycan array binding signal (z-score),[12],-0.317
same,glycan array binding signal (z-score),[13],-0.63
same,glycan array binding signal (z-score),[14],-0.572
same,glycan array binding signal (z-score),[15],-0.181
same,glycan array binding signal (z-score),[16],-0.7
same,glycan array binding signal (z-score),Gal(b1-3)GlcNAc,-0.494
same,glycan array binding signal (z-score),[17],-0.245
same,glycan array binding signal (z-score),[18],1.13
same,glycan array binding signal (z-score),[19],-0.504
same,glycan array binding signal (z-score),[20],0.101
same,glycan array binding signal (z-score),[21],-0.127
same,glycan array binding signal (z-score),[22],-0.396
same,glycan array binding signal (z-score),[23],0.204
same,glycan array binding signal (z-score),[24],2.38
same,glycan array binding signal (z-score),[25],1.03
same,glycan array binding signal (z-score),[26],-0.341
same,glycan array binding signal (z-score),[27],-0.672
same,glycan array binding signal (z-score),[28],-0.727
same,glycan array binding signal (z-score),[29],-0.347
same,glycan array binding signal (z-score),[30],-0.613
same,glycan array binding signal (z-score),[31],-0.395

# 8 entries from above, tab-delimited.
binder	measurement	setting	value
B1	glycan array binding signal (z-score)	Gal(a1-4)Gal(b1-4)GlcNAc	-0.441
same	glycan array binding signal (z-score)	[9]	-0.735
same	glycan array binding signal (z-score)	[10]	0.311
same	glycan array binding signal (z-score)	Gal(a1-4)GlcNAc	-0.712
same	glycan array binding signal (z-score)	Gal(a1-6)Glc	0.113
same	glycan array binding signal (z-score)	Gal(b1-2)Gal	-0.467
same	glycan array binding signal (z-score)	Gal(b1-3)Gal	-0.707
same	glycan array binding signal (z-score)	Gal(b1-3)Gal(b1-4)GlcNAc	-0.085
